The values below come from publication PMC11980367.

By UniProt entry, the sequences of proteins in these tests, tags left out.
UniProt O89090: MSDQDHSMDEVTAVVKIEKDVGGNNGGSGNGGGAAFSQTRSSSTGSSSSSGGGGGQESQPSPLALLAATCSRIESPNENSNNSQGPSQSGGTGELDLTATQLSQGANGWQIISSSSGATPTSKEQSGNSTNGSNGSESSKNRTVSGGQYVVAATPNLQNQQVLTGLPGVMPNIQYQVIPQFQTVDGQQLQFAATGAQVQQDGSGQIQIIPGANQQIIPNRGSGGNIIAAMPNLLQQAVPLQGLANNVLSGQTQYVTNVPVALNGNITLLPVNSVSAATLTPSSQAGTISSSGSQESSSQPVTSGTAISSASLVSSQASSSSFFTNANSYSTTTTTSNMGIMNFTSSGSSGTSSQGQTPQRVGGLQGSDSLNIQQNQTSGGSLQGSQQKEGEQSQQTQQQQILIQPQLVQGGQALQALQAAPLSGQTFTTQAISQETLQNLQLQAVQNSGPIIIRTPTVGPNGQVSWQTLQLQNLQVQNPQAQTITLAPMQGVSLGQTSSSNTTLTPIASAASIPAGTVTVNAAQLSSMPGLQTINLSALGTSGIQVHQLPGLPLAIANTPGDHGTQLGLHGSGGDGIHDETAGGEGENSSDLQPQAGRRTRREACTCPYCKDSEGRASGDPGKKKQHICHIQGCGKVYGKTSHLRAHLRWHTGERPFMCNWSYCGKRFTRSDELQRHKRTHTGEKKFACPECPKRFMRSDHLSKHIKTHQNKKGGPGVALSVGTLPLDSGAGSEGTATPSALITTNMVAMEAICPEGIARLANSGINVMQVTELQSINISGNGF

The assay concerns the target mouse SP1 transcription factor (mouse) (UniProt O89090). Kind of assay: co-IP; reciprocal: 293T cells co-transfected with mSP1 and Myc-tagged mHPSE or hHPSE; NP-40 lysate; precipitated with mouse anti-SP1 on protein A Dynabeads; blotted for HPSE (Fig. S6).

No constants are given. Whether binding was seen depends on the method and setting. In cells and extracts the contact can be indirect. Some results given as binding are weak or reduced against the parent protein; the word gives no strength. Tags and fused reporters may be left off the sequences shown.

B1: Myc-tagged mouse heparanase (mHPSE-V5/His with an added N-terminal Myc tag) (enzyme, UniProt Q6YGZ1 28-535)
chain: DDVVDLEFYTKRPLRSVSPSFLSITIDASLATDPRFLTFLGSPRLRALARGLSPAYLRFGGTKTDFLIFDPDKEPTSEERSYWKSQVNHDICRSEPVSAAVLRKLQVEWPFQELLLLREQYQKEFKNSTYSRSSVDMLYSFAKCSGLDLIFGLNALLRTPDLRWNSSNAQLLLDYCSSKGYNISWELGNEPNSFWKKAHILIDGLQLGEDFVELHKLLQRSAFQNAKLYGPDIGQPRGKTVKLLRSFLKAGGEVIDSLTWHHYYLNGRIATKEDFLSSDVLDTFILSVQKILKVTKEITPGKKVWLGETSSAYGGGAPLLSNTFAAGFMWLDKLGLSAQMGIEVVMRQVFFGAGNYHLVDENFEPLPDYWLSLLFKKLVGPRVLLSRVKGPDRSKLRVYLHCTNVYHPRYQEGDLTLYVLNLHNVTKHLKVPPPLFRKPVDTYLLKPSGPDGLLSKSVQLNGQILKMVDEQTLPALTEKPLPAGSALSLPAFSYGFFVIRNAKIAACI
Turning to B1, the binding result is listed as “binds”.

B2: Myc-tagged human heparanase (hHPSE-V5/His with an added N-terminal Myc tag) (enzyme, UniProt Q9Y251 36-543)
chain: QDVVDLDFFTQEPLHLVSPSFLSVTIDANLATDPRFLILLGSPKLRTLARGLSPAYLRFGGTKTDFLIFDPKKESTFEERSYWQSQVNQDICKYGSIPPDVEEKLRLEWPYQEQLLLREHYQKKFKNSTYSRSSVDVLYTFANCSGLDLIFGLNALLRTADLQWNSSNAQLLLDYCSSKGYNISWELGNEPNSFLKKADIFINGSQLGEDFIQLHKLLRKSTFKNAKLYGPDVGQPRRKTAKMLKSFLKAGGEVIDSVTWHHYYLNGRTATKEDFLNPDVLDIFISSVQKVFQVVESTRPGKKVWLGETSSAYGGGAPLLSDTFAAGFMWLDKLGLSARMGIEVVMRQVFFGAGNYHLVDENFDPLPDYWLSLLFKKLVGTKVLMASVQGSKRRKLRVYLHCTNTDNPRYKEGDLTLYAINLHNVTKYLRLPYPFSNKQVDKYLLRPLGPHGLLSKSVQLNGLTLKMVDDQTLPPLMEKPLRPGSSLGLPAFSYSFFVIRNAKVAACI
Regarding B2, the binding entry was “no binding”.
